Results as given in US6388116B1, “Near infrared absorbing compound” (Nisshinbo Industries, Inc., priority 1999, dated 2002).

Assay: absorption spectrum of aqueous solution
Type: physicochemical
Conditions: 20 mg/ml in ion-exchanged water, FIG. 1

## copper salt of phytic acid [Example 1]
  absorption in the region of 400-600 nm (visible light): does not substantially show absorption
  wavelength range showing absorption (near infrared): 750-1100 nm
